In the supplement of paper PMC10338343:
± gives the standard deviation. The list shows a part of the results, in another mix than the full data. Many of these values have a large error. The list shows a part of the results.

Tests used:
[1] = test system: MILI (PIWIL2) piRISC loaded with L1MC piRNA (26 nt); test: pre-steady-state target cleavage rate (min^-1); higher = faster piRNA-guided slicing of the target; conditions: guide: L1MC piRNA 5'p-UAACUAAAUACUAUGCAAGCUGUAGG
Outline: (§1)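 The pre-steady-state cleavage rate was derived from a burst-and-steady-state fit of Cleave-'n-Seq data. For these assays, 1 nM active affinity-purified piRISC loaded with a single synthetic guide was mixed with […] a transcribed, DNA-blocked target RNA library in HEPES–potassium acetate buffer at 33 °C, with or without 500 nM GTSF1 partner protein, for 0–8 or 0–960 min. Sequencing counts of uncleaved targets were normalised to depth and to weakly complementary targets, and k3 was capped at 0.0001 min^-1 after three trials were pooled.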

[2] = test system: MIWI (PIWIL1) piRISC loaded with L1MC piRNA (30 nt); test: as above; conditions: guide: L1MC piRNA 5'p-UAACUAAAUACUAUGCAAGCUGUAGGUCCU
Outline: as §1

[3] = test system: EfPiwi piRISC loaded with L1MC piRNA (26 nt); test: pre-steady-state target cleavage rate (min^-1); guide: L1MC piRNA 5'p-UAACUAAAUACUAUGCAAGCUGUAGG; MIWI and MILI are mouse PIWI proteins and EfPiwi is from a freshwater sponge; tags in brackets are library labels; higher = faster piRNA-guided slicing of the target
Outline: as §1

[4] = auxiliary factor: 500 nM mouse GTSF1
[5] = auxiliary factor: none (no GTSF1)
[6] = auxiliary factor: 500 nM Ephydatia muelleri Gtsf1
[7] = auxiliary factor: none (no Gtsf1)

| Sequence | pre-steady-state target cleavage rate [1, 4] | pre-steady-state target cleavage rate [1, 5] | pre-steady-state target cleavage rate [2, 5] | pre-steady-state target cleavage rate [3, 6] | pre-steady-state target cleavage rate [2, 4] | pre-steady-state target cleavage rate [3, 7] |
| --- | --- | --- | --- | --- | --- | --- |
| UCCUCCUACUCCUUGCAUAGUAUUUUCAAA | 0.0534 ± 0.015 | 0.0011 ± 0.0037 | 0.00144 ± 0.0023 | 0.00236 ± 0.0035 |  |  |
| UCCUGGAUGUCGAAGCAGAGUAUUUAGUUA | 0.00191 ± 0.0056 | 0.000906 ± 0.0071 | 0.000885 ± 0.0091 | 0.000288 ± 0.0099 |  |  |
| UCCUGGAACACGUUGCAUAGUAUUUUCAAA | 0.0973 ± 0.026 | 0.00188 ± 0.0033 | 0.00129 ± 0.006 | 0.00056 ± 0.0067 |  |  |
| UCCUGGAACAGCUUGCAUAGUAAAAACAAA | 0.0763 ± 0.031 | 0.000633 ± 0.013 | 0.0015 ± 0.0059 | 0.000723 ± 0.0071 |  |  |
| UCCUGGAUGUCGUUGCAUAGUAUUUUGAUA | 0.00115 ± 0.011 | 0.000583 ± 0.0094 |  | 0.000335 ± 0.011 | 0.0004 ± 0.023 |  |
| UCCUGGAUGUCGAAGCAUAGUAUUUAGUUC [g2:g16:cont:t1C] | 0.0284 ± 0.0076 | 0.00232 ± 0.0027 | 0.00124 ± 0.0046 | 0.000309 ± 0.0092 |  |  |
| UCCUGGAUGUCGAACGUUUGUAUUUUGUUA | 0.000103 ± 0.056 | 0.000224 ± 0.021 |  |  | 0.000237 ± 0.028 | 0.000198 ± 0.024 |
| UCCUGGUACACGUUGCAUAGUAUUUUCAAA | 0.02 ± 0.011 | 0.00224 ± 0.0051 | 0.000585 ± 0.015 | 0.000266 ± 0.03 |  |  |
| UCCUGGAUGAGGUUGCAUACUAUUUAGUUA | 0.0167 ± 0.006 | 0.00194 ± 0.0037 | 0.00126 ± 0.0051 | 0.00096 ± 0.0058 |  |  |
| UCCUGGAACAGCUACCAUAGUAUUUAGUAA | 0.23 ± 0.028 | 0.00298 ± 0.0029 | 0.00131 ± 0.0066 | 0.00249 ± 0.0036 |  |  |
| UCCUGGAUGUCGAACGAUACUAUUUAGUUA | 0.000142 ± 0.037 | 0.000257 ± 0.014 | 0.000272 ± 0.022 |  |  | 0.000126 ± 0.03 |
| UCCUGGAUGUCGAAGCAUAGUAUUUUAGUUA | 0.0433 ± 0.01 | 0.00324 ± 0.0028 |  | 0.000287 ± 0.012 | 0.00192 ± 0.0055 |  |
| UCCUGGUACACCUUGCAUAGUAUUUUCAAA | 0.0291 ± 0.016 | 0.00122 ± 0.0069 | 0.00201 ± 0.0053 | 0.000912 ± 0.0074 |  |  |
| UCCUGGAUGUCCUUGCAUAGUAAUAAGUUA | 0.0367 ± 0.013 | 0.00284 ± 0.0025 | 0.00086 ± 0.0074 | 0.00161 ± 0.005 |  |  |
| UCCUGGAUGUCGAUGACAUAGUAUUUAGUUA | 0.015 ± 0.0059 | 0.000975 ± 0.0043 | 0.000551 ± 0.0098 | 0.000404 ± 0.0076 |  |  |
| UCCUGGAUGUCGAACGUAUGUUAUUAGUUA | 0.000141 ± 0.05 | 0.000253 ± 0.016 |  |  | 0.000217 ± 0.032 | < 0.0001 |
| UCCUGGAUGUCCUUGCAUUGUAUUUUGUUA | 0.0388 ± 0.013 | 0.00207 ± 0.0038 | 0.00159 ± 0.005 | 0.00179 ± 0.0066 |  |  |
| UCCUGGAUGAGCUUGAUAGUAUUUAGUUA | 0.017 ± 0.0068 | 0.00442 ± 0.0028 | 0.0024 ± 0.003 | 0.00185 ± 0.0049 |  |  |
| UCCUGGAUGUCGAACCAUCGUAUUUAGUUA | 0.000454 ± 0.012 | 0.000426 ± 0.0092 |  | < 0.0001 | 0.000253 ± 0.019 |  |
| UCCUCCUACAGCUUGCAAUCUAUUUAGUAA | 0.0401 ± 0.0094 | 0.000753 ± 0.0078 | 0.00165 ± 0.0038 |  |  | 0.000452 ± 0.011 |
| UCCUGGAUGAGCUUCGAUAGUAUUUAGUUA | 0.108 ± 0.013 | 0.0016 ± 0.0048 | 0.00118 ± 0.0044 | 0.000682 ± 0.0048 |  |  |
| UCCUGGAUGUCGAACGAUAAUAUUUAGUUA | 0.000102 ± 0.051 | 0.00024 ± 0.02 | 0.000554 ± 0.01 |  |  | < 0.0001 |
| UCCUGGAUCAGCUUGCAUAGUAUAAAGUAA | 0.11 ± 0.024 | 0.00205 ± 0.0038 | 0.00359 ± 0.0037 | 0.00455 ± 0.0038 |  |  |

2 successive entries from above, quoted:

| Sequence | pre-steady-state target cleavage rate [1, 4] | pre-steady-state target cleavage rate [1, 5] | pre-steady-state target cleavage rate [2, 5] | pre-steady-state target cleavage rate [3, 6] | pre-steady-state target cleavage rate [2, 4] | pre-steady-state target cleavage rate [3, 7] |
| --- | --- | --- | --- | --- | --- | --- |
| UCCUGGAACAGCUACCAUAGUAUUUAGUAA | 0.23 ± 0.028 | 0.00298 ± 0.0029 | 0.00131 ± 0.0066 | 0.00249 ± 0.0036 |  |  |
| UCCUGGAUGUCGAACGAUACUAUUUAGUUA | 0.000142 ± 0.037 | 0.000257 ± 0.014 | 0.000272 ± 0.022 |  |  | 0.000126 ± 0.03 |

(next part)

| Sequence | pre-steady-state target cleavage rate [1, 4] | pre-steady-state target cleavage rate [1, 5] | pre-steady-state target cleavage rate [2, 5] | pre-steady-state target cleavage rate [3, 6] | pre-steady-state target cleavage rate [2, 4] | pre-steady-state target cleavage rate [3, 7] |
| --- | --- | --- | --- | --- | --- | --- |
| UCCUGGAUCAGGAAGCAUAGUAUUUAGUUA | 0.0634 ± 0.0094 | 0.00311 ± 0.0023 | 0.00178 ± 0.0036 | 0.00253 ± 0.0028 |  |  |
| UCCUGCUUGUGCUUGCAUAGUAUUUUCAAA | 0.00521 ± 0.0042 | 0.000743 ± 0.0063 | 0.00139 ± 0.0036 | 0.0022 ± 0.0034 |  |  |
| UCCUGGAUGUCCUUGCAAAGUAUAUAGUUA | 0.0544 ± 0.014 | 0.00539 ± 0.002 | 0.00157 ± 0.0045 | 0.000387 ± 0.01 |  |  |
| UCCUGGAUGUCGUUGAUAGUAUUUAGUUA | 0.00115 ± 0.0067 | 0.000563 ± 0.0076 | 0.000549 ± 0.006 | 0.000625 ± 0.01 |  |  |
| UCCUGGAUGUCGUUGCAUAGUUUUUAGAUA | 0.000821 ± 0.013 | 0.00134 ± 0.0041 | 0.000685 ± 0.0086 | 0.000214 ± 0.015 |  |  |
| UCCUGGUACAGCUUGCAUAGAUAUUAGUAA | 0.00377 ± 0.0041 | 0.00133 ± 0.0049 | 0.000918 ± 0.0062 | 0.000327 ± 0.027 |  |  |
| UCCUGGAUGUCGAAGCAUAGGUAUUUAGUUA | 0.000996 ± 0.0087 | 0.000554 ± 0.011 | 0.000545 ± 0.014 | 0.000221 ± 0.016 |  |  |
| UCCUGGAUGUGCUUGCAUACAAUUUAGUAA | 0.000987 ± 0.01 | 0.000953 ± 0.0066 |  | 0.00154 ± 0.0075 | 0.001 ± 0.011 |  |
| UCCUGGAUGUGCUUGCAUAGUAUUUUCAUA | 0.00417 ± 0.0048 | 0.000923 ± 0.0069 | 0.0022 ± 0.0033 | 0.000904 ± 0.0035 |  |  |
| UCCUGGAACAGCUUGCAUAGAUAUUAGUUA | 0.0112 ± 0.0053 | 0.00125 ± 0.0049 | 0.00137 ± 0.0049 | 0.000479 ± 0.007 |  |  |
| UCCUGGUACAGCUUGCAAAGUAUUUUCAAA | 0.0283 ± 0.012 | 0.00161 ± 0.0049 | 0.00268 ± 0.0036 | 0.00424 ± 0.0036 |  |  |
| UCCUGGAUGUCCUUGCAUUAGUAUUUAGUUA | 0.00301 ± 0.0054 | 0.00137 ± 0.005 | 0.00104 ± 0.0071 | 0.00162 ± 0.005 |  |  |
| UCCUGCUACAGCUUGCAUAGUAUUAACAAA | 0.0401 ± 0.011 | 0.00146 ± 0.0049 | 0.00187 ± 0.0053 | 0.00321 ± 0.0023 |  |  |
| UCCUGGAUGUCGUUGCAUAGUAAUUACUUA | 0.000116 ± 0.024 | 0.000274 ± 0.025 | 0.000471 ± 0.016 | 0.00019 ± 0.014 |  |  |
| UCCUGGAUGUCGAUGGAUAGUAUUUUGUUA | 0.00767 ± 0.0043 | 0.000396 ± 0.017 | 0.00033 ± 0.023 | 0.000926 ± 0.0076 |  |  |
| UCCUGGAUCAGCUUGCAUACAUUUUUCAAA | 0.000822 ± 0.011 | 0.000302 ± 0.015 | 0.000639 ± 0.0092 | 0.00117 ± 0.006 | 0.00114 ± 0.0085 |  |
| UCCUGGAUGUCGAACCAAUAGUAUUUAGUUA | 0.000682 ± 0.0053 | 0.000782 ± 0.0049 | 0.000288 ± 0.012 | 0.000188 ± 0.015 | 0.000194 ± 0.015 |  |
| UCCUGGAUCAGCUUGGUAAGUAUUUAGUUA | 0.0316 ± 0.0076 | 0.00588 ± 0.0023 | 0.00186 ± 0.0034 | 0.000714 ± 0.0099 | 0.00341 ± 0.0035 |  |
| UCCUGGAUCAGCUUGCAUAGUAUUUAGUUUA | 0.358 ± 0.025 | 0.00718 ± 0.0026 | 0.0415 ± 0.011 | 0.0394 ± 0.011 | 1.64 ± 0.071 |  |
| UCCUGGAUGUGCUUGCAUAGCUAUUUAGUUA | 0.00148 ± 0.0084 | 0.00119 ± 0.0068 | 0.00165 ± 0.0067 | 0.000434 ± 0.0068 | 0.00253 ± 0.0058 |  |
| UCCUCCUCACAGCUUGCAUAGUAUUUAGUUA | 0.369 ± 0.021 | 0.0102 ± 0.0027 | 0.0662 ± 0.014 | 0.191 ± 0.046 | 1.49 ± 0.064 |  |
| UCCUGGAUGUGCUUGCAUAGUAUAAUGAAA | 0.00179 ± 0.0054 | 0.000385 ± 0.016 | 0.00132 ± 0.0056 | 0.000631 ± 0.0063 | 0.00121 ± 0.008 |  |

As entered above:
pre-steady-state target cleavage rate [3, 6], UCCUGGAUGUGCUUGCAUAGUAUUUUCAUA reads 0.000904 ± 0.0035
pre-steady-state target cleavage rate [3, 6], UCCUGCUUGUGCUUGCAUAGUAUUUUCAAA reads 0.0022 ± 0.0034
